Test results published in US20250381223A1.
No constants are given. Whether binding was seen depends on the method and setting. Some entries that bind do so weakly or less than the wild type.

By UniProt entry, the sequences of proteins in these tests, tags left out. Where a name states a change or a piece, a line headed by the entry shows the natural chain unless it says otherwise. Chains listed by the source or under a name are the forms on record and can include a tag or linker. Residues count along the entry.
UniProt P25942, residues 21-193: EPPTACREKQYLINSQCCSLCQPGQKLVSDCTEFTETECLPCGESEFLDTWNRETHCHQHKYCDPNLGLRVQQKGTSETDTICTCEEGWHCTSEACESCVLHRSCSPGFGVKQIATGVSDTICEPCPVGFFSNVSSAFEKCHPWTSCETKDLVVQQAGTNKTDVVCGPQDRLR
mesothelin-Fc recombinant protein (Q13421, form named): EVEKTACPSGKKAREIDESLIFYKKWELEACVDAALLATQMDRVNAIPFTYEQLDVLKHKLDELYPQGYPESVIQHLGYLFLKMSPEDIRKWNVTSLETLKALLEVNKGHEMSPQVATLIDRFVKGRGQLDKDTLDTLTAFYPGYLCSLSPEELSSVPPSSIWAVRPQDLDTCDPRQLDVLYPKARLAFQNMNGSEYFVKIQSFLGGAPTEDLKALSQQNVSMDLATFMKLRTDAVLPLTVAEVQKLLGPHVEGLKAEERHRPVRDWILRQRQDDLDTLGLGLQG

How the values were obtained:
[1] = target: CD40-Fc (not stated for this staining reagent (paragraph 357 names a recombinant human CD40-Fc for the phage screening)) (UniProt P25942); experiment: flow cytometry of T cells expressing the diabody, CD40-Fc + PE-anti-Fc
[2] = target: mesothelin-Fc recombinant protein (human) (UniProt Q13421); experiment: flow cytometry (FACS staining) of CAR-T cells with mesothelin-Fc

Binder | binding [1] | binding [2]
4.6 (bispecific antibody) single chain, scFv-G4S-scFv: QVQLVQSGAEVKKPGSSVKVSCKASGGTFSSYAISWVRQAPGQGLEWMGMINPSGGTTSYAQKFQGRVTMTRDTSTSTVYMELSSLRPEDTAVYYCARGFRMDQWGQGTLVTVSSGGGGSGGGGSGGGGSQSALTQPPSASGSPGQSVTISCTGTSSDVGAYNFVSWYQQHPGNAPKLIIYDVRKRPSGIPDRFSASKSGNTASLTVSGLQADDEADYYCSSYAGNNNLVFGGGTKLTVLGGGGSQVKLQESGPGLVKPSETLSITCTVSGFSLSDYGVHWVRQSPGKGLEWLGVIWAGGGTNYNSALMSRKTISKDNSKSQVFLKMSSLTAADTAVYYCARDKGYSYYYSMDYWGQGTTVTVSSGGGGSGGGGSGGGGSDIQLTQSPSSLSVSVGDRVTISCRASESVEYYVTSLMQWYQQKPGQAPKLLIFAASNVESGVPSRFSGSGSGTNFTLTISSVQEEDFAMYFCQQSRKVPYTFGGGTKLEIK | binds | 
5.12 (bispecific antibody) single chain, scFv-G4S-scFv: QVQLVQSGAEVKKPGSSVKVSCKASGGTFSSYAVSWVRQAPGQGLEWMGMINPSGGTTSYAQKFQGRVTMTRDTSTSTVYMELSSLRPEDTAVYYCARGFRMDQWGQGTLVTVSSGGGGSGGGGSGGGGSQSALTQPPSASGSPGQSVTISCTGTSSDVGAYNFVSWYQQHPGNAPKLIIYDVRKRPRGIPDRFSASKSGNTASLTVSGLQADDEADYYCSSYAGNNNLVFGGGTKLTVLGGGGSQVKLQESGPGLVKPSETLSITCTVSGFSLSDYGVHWVRQSPGKGLEWLGVIWAGGGTNYNSALMSRKTISKDNSKSQVFLKMSSLTAADTAVYYCARDKGYSYYYSMDYWGQGTTVTVSSGGGGSGGGGSGGGGSDIQLTQSPSSLSVSVGDRVTISCRASESVEYYVTSLMQWYQQKPGQAPKLLIFAASNVESGVPSRFSGSGSGTNFTLTISSVQEEDFAMYFCQQSRKVPYTFGGGTKLEIK | binds | 
5.25 (bispecific antibody) single chain, scFv-G4S-scFv: QVQLVQSGAEVKKPGSSVKVSCKASGGTFSSYAISWVRQAPGQGLEWMGMINPSGGTTSYAQKFQGRVTMTRDTSTSTVYMELSSLRPEDTAVYYCARGFRMDQWGQGTLVTVSSGGGGSGGGGSGGGGSQSALTQPPSASGSPGQSVTISCTGTSSDVGAYNFVSWYQQHPGNAPKLIIYDVRKRPSGIPDRFSASKSGNTASLTVSGLQADDEADYYCSSYAGNNRLVFGGGTKLTVLGGGGSQVKLQESGPGLVKPSETLSITCTVSGFSLSDYGVHWVRQSPGKGLEWLGVIWAGGGTNYNSALMSRKTISKDNSKSQVFLKMSSLTAADTAVYYCARDKGYSYYYSMDYWGQGTTVTVSSGGGGSGGGGSGGGGSDIQLTQSPSSLSVSVGDRVTISCRASESVEYYVTSLMQWYQQKPGQAPKLLIFAASNVESGVPSRFSGSGSGTNFTLTISSVQEEDFAMYFCQQSRKVPYTFGGGTKLEIK | binds | 
5.36 (bispecific antibody) single chain, scFv-G4S-scFv: QVQLVQSGAQVKKPGSSVKVSCKASGGTFSSYAISWVRQAPGQGLEWMGMINPSGGTTSYAQKFQGRVTMTRDTSTSTVYMELSSLRPEDTAVYYCARGFRMDQWGQGTLVTVSSGGGGSGGGGSGGGGSQSALTQPPSASGSPGQSVTISCTGTSSDVGAYNFVSWYQQHPGNAPKLIIYDVRKRPIGIPDRFSASKSGNTASLTVSGLQADDEADYYCSSYAGNNNLVFGGGTKLTVLGGGGSQVKLQESGPGLVKPSETLSITCTVSGFSLSDYGVHWVRQSPGKGLEWLGVIWAGGGTNYNSALMSRKTISKDNSKSQVFLKMSSLTAADTAVYYCARDKGYSYYYSMDYWGQGTTVTVSSGGGGSGGGGSGGGGSDIQLTQSPSSLSVSVGDRVTISCRASESVEYYVTSLMQWYQQKPGQAPKLLIFAASNVESGVPSRFSGSGSGTNFTLTISSVQEEDFAMYFCQQSRKVPYTFGGGTKLEIK | binds | 
5.28 (bispecific antibody) single chain, scFv-G4S-scFv: QVQLVQSGAEVKKPGSSVKVSCKASGGTFSSYAISWVRQAPGQGLEWMGMINPSGGTTSYAQKFQGRVTMTRDTSTSTVYMELSSLRPEDTAVYYCARGFRMDQWGQGTLVTVSSGGGGSGGGGSGGGGSQSALTQPPSASGSPGQSVTISCTGTSSDVGAYNFVSWYQQHPGNAPKLIIYDTRKRPSGIPDRFSASKSGNTASLTVSGLQADDEADYYCSSYAGNNNLVFGGGTKLTVLGGGGSQVKLQESGPGLVKPSETLSITCTVSGFSLSDYGVHWVRQSPGKGLEWLGVIWAGGGTNYNSALMSRKTISKDNSKSQVFLKMSSLTAADTAVYYCARDKGYSYYYSMDYWGQGTTVTVSSGGGGSGGGGSGGGGSDIQLTQSPSSLSVSVGDRVTISCRASESVEYYVTSLMQWYQQKPGQAPKLLIFAASNVESGVPSRFSGSGSGTNFTLTISSVQEEDFAMYFCQQSRKVPYTFGGGTKLEIK | binds | 
anti-mesothelin scFv-M6 (scFv) scFv: EIVMTQSPATLSLSPGERATLSCRASQSIGNSLAWYQQKPGQAPRLLIYDVSNRATGIPARFSGSGSGTDFTLTISSLEPEDFAVYYCQHRYSWPLTFGGGTKVEIKGGGGSGGGGSGGGGSQVQLVQSGGGLVKPGGSLRLSCAASGFTFSDYYMSWIRQAPGKGLEWVSYISSSGSTIYYADSVKGRFTISRDNAKNSLYLQMNSLRAEDTAVYYCARDGYRTHNWFDPWGQGTLVTVSS |  | binds
anti-mesothelin scFv-M7 (scFv) scFv: DIRLTQSPSSLSASLGDRVTITCRASQAISSALAWYQQKPGKAPRLLIYDASTLESGVPSRFSGSGSGTDFTLTISSLQPEDFATYYCQQADSFPLTFGGGTKLEIKGGGGSGGGGSGGGGSQVQLVQSGAEVKKSGESLKISCKGSGYGFGAYWIAWVRQMPGKGLEWMGIIYPGDSRVIYSPYFQGQVTISADKSISTAYLQWSSLKASDTAMYYCARFGGPKFATNWFDIWGQGTTVTVSS |  | binds
anti-mesothelin scFv-M8 (scFv) scFv: DIQLTQSPSSLSASVGDRVTITCRASQSISSSLNWYQQKPGKAPKLLIYAASSLQSGVPSRFSGSGSGTDFTLTISSLQPEDFATYSCQQSYSTPLTFGGGTKVEIKGGGGSGGGGSGGGGSQVHLVESGGGVVQPGRSLRVSCAASGFTFSGYAMYWVRQAPGKGLEYVSAITTNGGSTNYADSVKGRFTISRDNSKNTLYLQMSSLRAGDTAVYYCARGAPGYRGYYMDVWGKGTTVTVSS |  | binds
anti-mesothelin scFv-M12 (scFv) scFv: AIRLTQSPSLLSASVGDRVTVTCRASQGGGNYLAWYQQKPGKAPKLLIYGASKLQSGVPSRFSGSGSGTEFTLTISSLQPEDFATYYCQQLNSYPVTFGQGTKVDIKGGGGSGGGGSGGGGSEVQLVESGAEVKKPGASVKVSCKASGYTFTTYYIHWVRQAPGQGLEWMGIINPSSGSTTYTQKFQGRVTMTRDTSTSTVYIELSGLRSEDTAVYYCARGETLRGYFDYWGQGTLVTVSS |  | binds
anti-mesothelin scFv-M13 (scFv) scFv: AIRMTQSPSSLSASVGDRVTITCRASQGISNSLAWYQQKPGKAPKLLLYAASRLESGVPSRFSGSGSGTDYTLTISSLQPEDFATYYCQQYYSTPFTFGPGTKLEIKGGGGSGGGGSGGGGSQVQLVQSGAEVKKPGSSVKVSCKTSADTFSANTINWVRQAPGHGLEWMGRIIPSLNIRDYAQEFQGRVTFTADESTNTVYMQLTSLRSEDTAVYYCARDPGSTWSPNQFFPHWGQGTLVTVSS |  | binds
anti-mesothelin scFv-M20 (scFv) scFv: AIQMTQSPSSLSASVGNRVTITCRASQGISSAVAWYQQKPGKPPKLLISYASSLESGVPSRFSGSGSGTDFSLTISSLQPEDFATYFCQQFNSYPLTFGGGTKVEIKGGGGSGGGGSGGGGSQVQLVQSGAEVRKPGESLKISCKGSGYSFRDSWIAWVRQMPGQGLEWMGIIFPGDSNPIYSPSFQGQVTISADTSISTTFLQWRSLKASDSAIYYCARHAAWGAGWFDPWGQGTLVTVSS |  | binds
anti-mesothelin scFv-M24 (scFv) scFv: QPVLTQPPSASGTPGQRVTISCSGSSSNIGSNYVYWYQQFPGTAPKLLIYMNNQRPSGVPDRFSGSKSGTSASLAISGLRSEDEADYYCAARDDSLSGYVTFGGGTKLTVLGGGGSGGGGSGGGGSEVHLVESGGGLVQPGGSLRLSCAASGFTFSSYAMSWVRQAPGKGLEWVSAISGSGGSTYYADSVKGRFTISRDNSKNTLYLQMNSLKTEDTAVYYCTRGVATFDYWGQGTLVTVSS |  | binds
anti-mesothelin scFv-M27 (scFv) scFv: EIVLTQSPGTLSLSPGERATLSCRASQPIVASHLAWYQHKPGQAPRLLIYGASTRAAGIPDRFSGSGSGTDFTLTISRLEPEDFAVYFCQQYGISPFTFGPGTKVDIKGGGGSGGGGSGGGGSQVQLVQSGAEVKKPGESLKISCQGSGYSFTDYWIGWVRQAPGQGLEWMGWITPNNGNTNYAPKFQGRVTLTTDTSTSTAYMELRSLTSDDTAVYFCARRGRNSSGYLYYYSMDVWGQGTTVTVSS |  | binds
anti-mesothelin scFv-M28 (scFv) scFv: QSALTQPPSASGSPGQSVTISCSGTSSDVGGYNFVSWYQHHPGKAPKLMIYEVSKRPSGVPDRFSGSKSGNTASLTVSGLQAEDEADYYCSSYAGRNNPYLFGTGTKLTVLGGGGSGGGGSGGGGSQLQLQESGAEVKKPGSSVKVSCKASGGTFSSYAISWVRQAPGQGLEWMGGIIPIFGTANYAQKFQGRVTITADESTSTAYMELSSLRSEDTAVYYCARDLGGYSYGHGLDYWGQGTLVTVSS |  | binds
anti-mesothelin scFv-M31 (scFv) scFv: QSALTQPPSASGSPGQSVTISCTGTSSDIGGYNSVSWYQQHPGKAPKLIIYGVSRRPSGVPDRFSGSKSANTASLTVSGLQAVDEADYYCSSYGGSNNLLFGGGTKLTVLGGGGSGGGGSGGGGSEVHLVESGGGLAQPGGSLRLSCAASGFSFSSSWMAWVRQAPGKGLEWVANIKQDGSSQYYVDSVKGRFTISRDNAKNSLSLQMNSLRAEDTAVYYCARDIWYSIDYWGQGTLVTVSS |  | binds
anti-mesothelin scFv-M32 (scFv) scFv: DIRMTQSPSSLSASVGDRVTVTCQASEDINNSLNWYQQKPGKAPQLLIYDASDLETGVPSRFSGRGSGRDFTLTISSLQPEDFATYYCQQLNSYPLTFGGGTKLEIKGGGGSGGGGSGGGGSQVQLVQSGAEVKKPGASVKVSCKASGFTFIGYYLHWVRQAPGQGLEWMGIINPSGGRTSMAQKFQGRVSMTTDTSTGTVYLDLGRLGSDDTAVYYCARADNWNAGSMDVWGNGTTVTVSS |  | binds
anti-mesothelin scFv-M37 (scFv) scFv: DIVMTQTPSSLSASVGDRVTITCRASQGISNYLAWFQQKPGKAPKPLIYAASSLQSGVPSKFSGSGSGTDFTLTISNLQPEDFATYICQQYSSYPITFGQGTRLEIKGGGGSGGGGSGGGGSQLQLQESGPGLVKPSETLSLTCAVSGGSISPYYWTWIRQSPGKAMEWMGYIHYSGRTNYNPSLESRATFSVDTSKNQISLKLNSVTAADTAVYYCTKVGDPGLFDYWGPGTLVTVSS |  | binds
